Laboratory results: PubChem BioAssay AID504786 (Drosophila RNAi Screening Center, 2011)

Assay: 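Knock-downs reducing HIF reporter induction by the iron chelator DFO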 (primary screen)
Cells: Drosophila S2 cells with a stable HIF luciferase reporter
Knock-down reagent: long dsRNA against Drosophila genes, about 0.2 µg dsRNA per well of a 384-well plate
Timing: three days of knock-down, then 20 h of DFO before reading
Conditions: desferrioxamine (DFO) at 100 µM, an iron chelator that mimics hypoxia, for 20 h
Measurement: 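Firefly luciferase driven by the mouse ldh-a hypoxia-response element, measured after 20 h of 100 µM DFO; z-scores per plate, higher means more signal lost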
Scale: z-score: higher = stronger loss of HIF reporter signal
In all, the deposit lists about 21,000 reagents; below is an unselected part of those that have a named target and a result. 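Primary screen; positive scores mean lost reporter signal, so the sign may be inverted from the usual convention.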 Names joined by + are all predicted targets of the reagent. Further read-outs or replicates are left out here.

CG33493 [DRSC10642] gave z-score, replicate 1 = -0.3.
Against CG6220 [DRSC06969] the deposit lists z-score, replicate 1 = -0.3.
Depletion of CG15739 [DRSC19705] resulted in: z-score, replicate 1 = -0.2.
For CG3894 [DRSC01762] the deposit lists z-score, replicate 1 = -0.2.
Against CG3894 [DRSC04012], the values are z-score, replicate 1 = 0.
Silencing of CG3894 [DRSC04429] gave: z-score, replicate 1 = 0.4.
Against CG13871 [DRSC06430] the deposit lists z-score, replicate 1 = 0.2.
Silencing of Nepl21 [DRSC14133] resulted in: z-score, replicate 1 = -0.3.
With knock-down of Archease [DRSC16025], the screen gave z-score, replicate 1 = 0.
For Arts + Apl [DRSC10349], the values are z-score, replicate 1 = -0.2.
Depletion of Arpc5 [DRSC00730] came out at: z-score, replicate 1 = 0.3.
Cox17 [DRSC20145] scored z-score, replicate 1 = 1.2.
For CG16904 [DRSC15161], the values are z-score, replicate 1 = -0.4.
After knock-down of RhoL [DRSC16824], the screen gave z-score, replicate 1 = 0.
Depletion of CG8089 [DRSC07074] came out at: z-score, replicate 1 = -0.2.
For CG3939 [DRSC18498] the deposit lists z-score, replicate 1 = -0.2.
Against Rbp6 [DRSC09462], the values are z-score, replicate 1 = -0.6.
With knock-down of Rbp6 [DRSC09464], the record shows z-score, replicate 1 = 0.1.
After knock-down of Rbp6 [DRSC10072] the results were z-score, replicate 1 = -0.2.
With knock-down of Rbp6 [DRSC10073], the screen gave z-score, replicate 1 = -0.3.
After knock-down of Rbp6 [DRSC10662] the results were z-score, replicate 1 = -0.3.
For CG7290 [DRSC10800], the values are z-score, replicate 1 = -0.1.

5 entries from above, set out differently:
{"gene":"Archease","dsRNA":"DRSC16025","z-score, replicate 1":0}
{"gene":"Arts + Apl","dsRNA":"DRSC10349","z-score, replicate 1":-0.2}
{"gene":"Arpc5","dsRNA":"DRSC00730","z-score, replicate 1":0.3}
{"gene":"Cox17","dsRNA":"DRSC20145","z-score, replicate 1":1.2}
{"gene":"CG16904","dsRNA":"DRSC15161","z-score, replicate 1":-0.4}

Next reagents follow.
CG30016 [DRSC05242] gave z-score, replicate 1 = -0.1.
With knock-down of CG14966 [DRSC08425] the results were z-score, replicate 1 = 0.9.
Against Spt-I [DRSC06860] the deposit lists z-score, replicate 1 = -0.5.
atilla [DRSC02971] scored z-score, replicate 1 = -0.4.
For CG32551 [DRSC19259], the values are z-score, replicate 1 = 0.
frtz [DRSC00512] showed z-score, replicate 1 = 0.
CG31183 [DRSC14403] scored z-score, replicate 1 = -0.2.
CG31183 [DRSC15554] showed z-score, replicate 1 = -0.1.
With knock-down of CG13177 [DRSC06303] the results were z-score, replicate 1 = 0.
CG3168 [DRSC18287] showed z-score, replicate 1 = -0.1.
CG3860 [DRSC04425] gave z-score, replicate 1 = -0.3.
Depletion of CG3630 [DRSC18499] gave: z-score, replicate 1 = -0.3.
With knock-down of Dcp-1 [DRSC04609], the screen gave z-score, replicate 1 = -0.3.
rt [DRSC11391] showed z-score, replicate 1 = -0.3.
CG11608 [DRSC14334] gave z-score, replicate 1 = -0.2.
CG4968 [DRSC02794] scored z-score, replicate 1 = -0.3.
Depletion of PrBP [DRSC03189] resulted in: z-score, replicate 1 = -0.4.
Knock-down of CG34163 [DRSC01219] gave: z-score, replicate 1 = 0.1.
